Source: the supplement of paper PMC10849652
The other results are listed elsewhere or left out.

Columns and labels:
Assay in all cases: log2 fold change, soluble protein after heating vs DMSO (PISA); higher = thermal stabilisation; K562 cells, 10 uM, 30 min; active = over 0.2 and 3.5 SD of the protein, either way, in both replicates (recomputed)
[1] = compound: NC(=O)Nc1cc(-c2cccc(F)c2)sc1C(=O)N[C@H]1CCCNC1
Outline: (§1)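 K562 cells (2×10^6 cells/mL) were treated with 10 μM compound for 30 min, and aliquots were heated for 3 min over 48°C-58°C. Pooled aliquots were extracted in PBS with 0.5% NP-40 at 4°C, and the supernatant after 21,000xg for 90 min was measured by TMTpro 16plex LC-MS/MS with channel sums equalised. Reported thermal stability, relative to control samples and from duplicates, is a log2 fold change.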

entinostat = compound: Nc1ccccc1NC(=O)c1ccc(CNC(=O)OCc2cccnc2)cc1 [entinostat]
Outline: as §1

[2] = compound: NC1(c2ccc(-c3nc4ccn5c(=O)[nH]nc5c4cc3-c3ccccc3)cc2)CCC1
Outline: as §1

[3] = compound: NCC(=O)Nc1ccc(-n2nc(C(F)(F)F)cc2-c2ccc3c(ccc4ccccc43)c2)cc1
Outline: as §1

citarinostat = compound: O=C(CCCCCCNC(=O)c1cnc(N(c2ccccc2)c2ccccc2Cl)nc1)NO [citarinostat]
Outline: as §1

silmitasertib = compound: O=C(O)c1ccc2c(c1)nc(Nc1cccc(Cl)c1)c1ccncc12 [silmitasertib]
Outline: as §1

[4] = compound: O=C1NC(=O)C(c2cnc3ccccn23)=C1c1cn2c3c(cc(F)cc13)CN(C(=O)N1CCCCC1)CC2
Outline: as §1

[5] = compound: c1cc(OCCN2CCCCC2)cc(-c2n[nH]c3ccc(-c4nnc[nH]4)cc23)c1
Outline: as §1

[6] = compound: NC(=O)c1cnc(N[C@@H]2CCCC[C@@H]2N)nc1Nc1cccc(-n2nccn2)c1
Outline: as §1

vorinostat = compound: O=C(CCCCCCC(=O)Nc1ccccc1)NO [vorinostat]
Outline: as §1

Measured: log2 fold change

PRMT2 (UniProt P55345)
inactive: [1] -0.317 | entinostat 0.032

PPP1R9A isoform 3 (UniProt Q9ULJ8)
inactive: [1] 0.122 | [2] 0.139 | [3] -0.133 | entinostat -0.185 | citarinostat -0.041 | silmitasertib 0.21 | [4] 0.147 | [5] -0.092

PROCR (UniProt Q9UNN8)
inactive: [1] 0.064 | [6] 0.278 | [3] 0.082 | entinostat -0.064 | vorinostat 0.019 | citarinostat -0.045 | [4] -0.056 | [5] 0.019

PRC1 (UniProt O43663)
inactive: [1] -0.084 | [6] 0.033 | entinostat 0.086

PRDM2 (UniProt Q13029)
inactive: [6] -0.002 | [2] 0.074 | [3] 0 | vorinostat -0.016 | citarinostat -0.117 | silmitasertib 0.022 | [4] 0.118 | [5] -0.006

PRKX (UniProt P51817)
inactive: [2] -0.243 | silmitasertib 0.153

PPP1R3D (UniProt O95685)
inactive: [2] 0.062 | vorinostat -0.04 | silmitasertib 0.022

PROSER3, A0A2R8Y8D9
inactive: [1] 0.014 | [6] -0.079 | [2] -0.003 | entinostat 0.02 | citarinostat -0.1 | silmitasertib 0.111 | [4] -0.089 | [5] 0.193

PPP1R21 (UniProt Q6ZMI0)
inactive: [1] -0.046 | [6] -0.056 | [3] -0.061 | entinostat 0.094 | vorinostat 0.043 | [4] 0.019

PRIMPOL (UniProt Q96LW4)
inactive: [1] -0.283 | [6] 0.045 | entinostat -0.112

PPP2R3C (UniProt Q969Q6)
inactive: citarinostat 0.028 | [5] -0.313

PPP2R5C isoform 2 (UniProt Q13362)
inactive: [2] -0.183 | citarinostat 0.069 | silmitasertib -0.064 | [5] 0.105

PRR4 (UniProt Q16378)
inactive: [6] 0.25 | [2] 0.05 | silmitasertib -0.027

PRNP (UniProt P04156)
inactive: [1] 0.06 | [2] 0.086 | entinostat -0.005 | vorinostat -0.018 | silmitasertib 0.019

PPP1R13L (UniProt Q8WUF5)
inactive: [3] 0.034 | vorinostat -0.044 | citarinostat -0.183 | [4] -0.001 | [5] -0.158

PPP2R5B (UniProt Q15173)
inactive: [6] 0.017 | [2] -0.167 | [3] -0.006 | vorinostat 0.112 | citarinostat 0.122 | silmitasertib 0 | [5] 0.127

PRG2 (UniProt P13727)
inactive: [2] -0.111 | [3] 0.152 | citarinostat 0.029 | silmitasertib 0.271 | [4] -0.163 | [5] -0.175

PRR16 (UniProt Q569H4)
inactive: vorinostat -0.043

PRSS2 (UniProt P07478)
inactive: [1] -0.137 | [6] 0.093 | [3] 0.027 | entinostat -0.13 | [4] -0.013

PRR12 (UniProt Q9ULL5)
inactive: [1] 0.07 | entinostat -0.011

PROSER1 (UniProt Q86XN7)
inactive: [1] -0.106 | entinostat -0.122

PPTC7 (UniProt Q8NI37)
inactive: [3] 0.01 | vorinostat 0.037 | [4] 0.042

PRRG1 (UniProt O14668)
inactive: [2] 0.099 | vorinostat -0.037 | silmitasertib 0.062

PRR3 (UniProt P79522)
inactive: [1] 0.004 | entinostat -0.087 | vorinostat -0.078 | [4] -0.067

PRADC1 (UniProt Q9BSG0)
inactive: [1] -0.064 | [2] 0.084 | [3] 0.174 | entinostat -0.02 | vorinostat 0.009 | citarinostat -0.614 | silmitasertib 0.135 | [4] 0 | [5] -0.117

PRF1 (UniProt P14222)
inactive: [1] -0.087 | entinostat -0.191 | [4] 0.018

2 successive entries out of the list so far:
PRC1 (UniProt O43663)
inactive: [1] -0.084 | [6] 0.033 | entinostat 0.086

PRDM2 (UniProt Q13029)
inactive: [6] -0.002 | [2] 0.074 | [3] 0 | vorinostat -0.016 | citarinostat -0.117 | silmitasertib 0.022 | [4] 0.118 | [5] -0.006

The results go on:

PRELID3B (UniProt Q9Y3B1)
inactive: [6] -0.222 | vorinostat -0.076 | [4] -0.011

PRKD2 (UniProt M0R346)
inactive: [1] -0.279 | entinostat 0.032 | vorinostat 0.021 | [4] -0.15

PPP2R3B (UniProt Q9Y5P8)
inactive: [6] -0.097 | [2] 0.305 | [3] -0.055 | silmitasertib 0.275 | [4] -0.263

PRELID1 (UniProt Q9Y255)
inactive: [1] -0.027 | [2] 0.219 | [3] 0.283 | entinostat 0.026 | vorinostat -0.008 | silmitasertib -0.055 | [4] -0.06

PPP1R14B (UniProt Q96C90)
inactive: [1] -0.084 | [6] 0.185 | [2] 0.138 | [3] 0.24 | entinostat -0.117 | citarinostat -0.02 | silmitasertib -0.079 | [4] -0.02 | [5] 0.049

PRPF6 (UniProt O94906)
inactive: [1] 0.238 | [6] 0.041 | entinostat 0.03 | vorinostat -0.059 | [4] -0.226

PPP2R1B (UniProt H0YDG7)
inactive: [1] -0.473 | [2] 0.04 | entinostat -0.188 | vorinostat -0.431 | citarinostat -0.269 | silmitasertib -0.024 | [5] -0.017

PPP2R2A, A0A590UJJ1
inactive: [6] -0.26 | vorinostat -0.042

PRR14L (UniProt Q5THK1)
inactive: [6] -0.205 | [3] -0.176 | vorinostat -0.009

PPP1R12C (UniProt Q9BZL4)
inactive: [1] -0.151 | [2] -0.031 | [3] -0.022 | entinostat 0.072 | vorinostat 0.487 | citarinostat -0.008 | silmitasertib 0.122 | [4] -0.073 | [5] -0.278

PPP1R15A (UniProt O75807)
inactive: [1] -0.13 | entinostat -0.061 | [4] -0.164
